Data as given in PubChem BioAssay AID651640 (Broad Institute, 2012).
Out of some 350,000 compounds screened, about 6,000 (1.7%) were called active. Inconclusive means that the source gave no clear call. Such entries were picked first, then a sample of the others. Rule as the data show it: active = CPE inhibition above about 20% (passing the limit was not always enough); inconclusive = no clear call, values can overlap the other calls; tested in BHK-21 cells.

test: protection of cells from dengue 2 killing – plate reader, single concentration, primary screen (AID 651640); settings: DENV2-infected cells, cytopathic effect rescue, at 9.99 µM, active compounds read high;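 also: 0% = median of neutral control wells and 100% = median of positive control wells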

Structure (SMILES)	CPE inhibition
Cc1cccc(S(=O)(=O)N(C)C[C@@H]2OCc3cn(nn3)CCCC(=O)N([C@H](C)CO)C[C@H]2C)c1	inconclusive: 28.8%
CC1=CC(=O)C2=C(C)CC[C@@H]3[C@H](OC(=O)[C@H]3C)[C@@H]12	inactive: 12.5%
CCc1nc2ccc(C(=O)N3CCN(S(=O)(=O)CC)CC3)cn2c1N(CC)C(=O)NCCc1ccccc1	inconclusive: 38.2%
COc1ccc([C@H]2C[C@@H](O)[C@H](n3cc(COC(=O)c4ccccc4)nn3)CN2Cc2cccs2)cc1	active: 56.2%
CCCCN1CC[C@H]2C=CC[C@@H](C(=O)NCCc3ccccc3)[C@H]2C1=O	inconclusive: 53.4%
O=C(c1nc[nH]c1C(=O)N1CCc2ccccc2C1)N1CCc2ccccc2C1	inconclusive: 22.1%
Cc1cnc(NC(=O)c2sc(Nc3ccccc3)nc2N)o1	inconclusive: 20.4%
C[C@H](CO)N1C[C@H](C)[C@H](CN(C)CC2CC2)Oc2ccc(NS(C)(=O)=O)cc2CC1=O	inconclusive: 30.8%
CSc1nc(N)c2cn[nH]c2n1	inconclusive: 23.2%
CCCNC(=O)N[C@H]1CC[C@H](CC(=O)NCCc2ccccc2)O[C@@H]1CO	inactive: -2.11%
Cn1c(C(=O)N2CCN(c3ccccc3)CC2)cc2cc(Cl)ccc21	inactive: -5.48%
COc1cccc(CN(C(=O)c2ccco2)C2CCS(=O)(=O)C2)c1 (configuration not stated)	inconclusive: 20.9%
COCC(=O)Nc1ccc2c(c1)OC[C@@H](C)N(C)C[C@H](C)[C@H](OC)CN(C)C2=O	inactive: -5.5%
CN(C(=O)c1cccc(NC(=O)Cc2ccc(NC(=O)C3CCN(C(=O)CCc4ccccc4)CC3)cc2)c1)C1CCC1	inconclusive: 50.3%
CCN(C[C@H]1[C@H](c2ccccc2)[C@@H](CO)N1S(C)(=O)=O)C(=O)C1CCCC1	inactive: 17.5%
CN(C)C(CNC(=O)C1CC(=O)N(c2cccc(C(F)(F)F)c2)C1)c1ccccc1 (configuration not stated)	inconclusive: 25.5%
Cc1c(C(=O)OC(C)C)sc(N)c1C(=O)OC(C)C	active: 47.5%
COc1ccccc1CN1CC(C(=O)N(C)CCCn2nc(C)cc2C)CCC1=O (configuration not stated)	active: 51.5%
C[C@H]1CC[C@@]2(O[C@@H](CCO)C[C@H](O)[C@H]2O)O1	inactive: 8.83%
CCCN1C[C@H](C)[C@H](OC)CN(C)C(=O)c2ccc(NC(=O)c3ccccc3)cc2OC[C@@H]1C	inactive: 0.388%
O=C(Nc1ccc(S(=O)(=O)N2CCOCC2)cc1)c1ccc(=O)[nH]c1	inactive: -2.95%
Cn1c(=O)c(=O)n(C)c2cc(S(=O)(=O)NCc3ccc(Cl)cc3)ccc21	inconclusive: 22.4%

Look-ups from the entries so far.
CPE inhibition, COc1ccc([C@H]2C[C@@H](O)[C@H](n3cc(COC(=O)c4ccccc4)nn3)CN2Cc2cccs2)cc1 is entered as active: 56.2%
CPE inhibition, Cc1cnc(NC(=O)c2sc(Nc3ccccc3)nc2N)o1 is entered as inconclusive: 20.4%
